Reference: PubChem BioAssay AID743454 (Peter MacCallum Cancer Centre, 2014)

Purpose: 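Genes whose loss kills vorinostat-resistant colon cancer cells under vorinostat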 (primary screen)
Cell system: human HCT116-VR colon cancer cells, selected for vorinostat resistance
Reagents: siRNA pool against human genes, 40 nM siRNA pool
Time to read-out: vorinostat for 24 h, read-out about 72 h after transfection
Treatment: vorinostat at 2.5 µM final
Measurement: 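Two measures, CellTiter-Fluor viability and luminescent caspase 3/7 activity, each as fold change against same-plate mock wells, mean of duplicates, then screen-wide robust z-score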
Reading the numbers: viability robust z-score: higher = more viable cells than screen typical; caspase robust z-score: higher = more caspase 3/7 activity than screen typical
Hit rule: 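Hits are knock-downs in viability class RV1/RV2 or caspase class CA1/CA2, excluding ones that killed cells in the no-drug cell-count arm; hits then retested with single siRNAs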
The whole screen tested about 18,000 reagents; below is a part drawn at random. In the full data, 450 (2.5%) were called active. 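Single biological run; no consistent viability z cut-off exists, so the class columns, not z-scores, define the calls.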 A number with no mark means an inactive call.

| gene | viability hit class | caspase hit class | viability robust z-score | caspase robust z-score |
| --- | --- | --- | --- | --- |
| REEP3 | no change | no change | -0.47 | -1.4 |
| QPCTL | no change | no change | -1.08 | -0.78 |
| TTC22 | RV1 (reduced viability) (active) | no change | -3.26 | 1.73 |
| TSEN54 | no change | no change | -0.86 | 0.32 |
| ZNF827 | no change | no change | -0.26 | -0.69 |
| VPS18 | no change | no change | -0.78 | -0.86 |
| PAM | no change | no change | 1.38 | 0.32 |
| SLC27A4 | no change | no change | 0.35 | -0.18 |
| WASL | no change | no change | 0.7 | 0.68 |
| GDF2 | no change | no change | -0.12 | -0.8 |
| DYRK3 | no change | no change | 0.22 | -0.08 |
| AMY1C | no change | no change | 0.92 | -0.56 |
| OR2B11 | no change | no change | -1.24 | 0.26 |
| SLITRK1 | no change | no change | -0.2 | 1.75 |
| XPC | no change | no change | 0.86 | -0.72 |
| BCL6 | no change | no change | 0.38 | -1.04 |
| FBXW10 | no change | no change | -1.7 | -0.28 |
| PTX4 | no change | no change | 0.94 | -0.6 |
| EML3 | no change | no change | 0.05 | -0.86 |
| DIS3 | no change | no change | -0.1 | -0.36 |
| DLX1 | no change | no change | -0.75 | 1.97 |
| GP1BA | no change | no change | 0.97 | 0.48 |
| ZNF155 | no change | no change | -0.19 | -0.26 |
| IL2 | no change | no change | 0.85 | -1.09 |
| SCUBE2 | no change | no change | 2.38 | 0.28 |
| XRN2 | no change | no change | 0 | -0.76 |
| NTAN1 | no change | no change | -0.66 | -0.6 |
| NAIP | no change | no change | -0.29 | -0.26 |
| CPQ | no change | no change | -2.04 | 4.06 |
| LACTB | no change | no change | 0.94 | -0.04 |
| SEPTIN5 | no change | no change | 0.72 | 1.15 |
| SUCNR1 | no change | no change | 0.16 | -0.52 |
| TIGIT | no change | no change | 1.21 | -0.31 |
| DAG1 | no change | no change | -0.1 | 0.3 |
| CCDC120 | no change | no change | 1.27 | 1.62 |
| KCNQ5 | no change | no change | 1.7 | -0.44 |
| CNTD1 | no change | no change | -0.92 | -0.67 |
| NOTCH2NLA | no change | no change | -0.06 | -0.4 |
| DZANK1 | no change | no change | -1.56 | 0.05 |
| SYT17 | no change | no change | 0.25 | -1.36 |
| BMP2K | no change | no change | 0.36 | 1.12 |
| KRTAP4-4 | no change | no change | 0.24 | 0.67 |
| MARCHF6 | no change | no change | -2.06 | 0.98 |
| PIP4K2A | no change | no change | 0.97 | 0.5 |
| CCL28 | no change | no change | -0.72 | -1.04 |
| KCNJ1 | no change | no change | -0.54 | 0.88 |
| PREX1 | no change | no change | 0.92 | 0.14 |
| LDLRAD1 | no change | no change | -0.24 | -0.13 |
| EPGN | no change | no change | -1.24 | -0.52 |
| DNAJA3 | no change | no change | 0.77 | -0.6 |
| CPXCR1 | no change | no change | -1.94 | 3.63 |
| PELO | no change | no change | 0.9 | 1.22 |
| EPS15L1 | no change | no change | -0.78 | 1.15 |
| NRBF2 | no change | no change | 0.78 | -0.01 |
| MXRA7 | no change | no change | 0.38 | -0.24 |
| HDHD5 | no change | no change | 0.33 | 0.62 |
| H2AC12 | no change | no change | 0.74 | -1.21 |

Reagents listed above with an active call, once more:
| gene | viability hit class | caspase hit class | viability robust z-score | caspase robust z-score |
| --- | --- | --- | --- | --- |
| TTC22 | RV1 (reduced viability) (active) | no change | -3.26 | 1.73 |
